Measurements reported in PubChem BioAssay AID1259405 (NCATS, 2018)
The whole screen tested about 50,000 reagents; below is a random part of them. About 4,000 of all reagents (8%) count as active. 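Mouse siRNA library applied to hamster cells; one well for each siRNA.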 The numbers tell different reagents against one gene apart. Reagent sequences are not shown.

Assay: 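Mouse-designed siRNAs used to find CHO productivity engineering targets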 (primary screen)
Cells: Chinese hamster CHO-K1 ovary cells with stable secreted eGFP expression
Reagents: single siRNA against mouse genes, 0.8 pmol siRNA per well (2 µl of 400 nM stock)
Timing: 3 days
Measured: 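Per-well intracellular GFP measured by laser scanning cytometry, plus viability from ATP luminescence, each relative to plate median of non-targeting control wells, in %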
Scale: GFP, % of control: higher = more GFP per well, higher productivity; viability (ATP), % of control: higher = more viable cells (more ATP)
Rule for the call: 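a knock-down is called active if GFP reaches 120% or more of non-targeting control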

| gene symbol | reagent | GFP, % of control | viability (ATP), % of control | call |
| --- | --- | --- | --- | --- |
| Gm5535 (predicted gene 5535) | 1 | 66.4 | 72.3 | inactive |
| Gm5535 (predicted gene 5535) | 2 | 79.4 | 80.8 | inactive |
| Gm5535 (predicted gene 5535) | 3 | 62.5 | 76.1 | inactive |
| Eif3d (eukaryotic translation initiation factor 3, subunit D) | 1 | 92.1 | 95.3 | inactive |
| Eif3d (eukaryotic translation initiation factor 3, subunit D) | 2 | 64.5 | 70.3 | inactive |
| Eif3d (eukaryotic translation initiation factor 3, subunit D) | 3 | 110 | 68.5 | inactive |
| Cdk11b (cyclin dependent kinase 11B) | 1 | 155 | 78 | active |
| Cdk11b (cyclin dependent kinase 11B) | 2 | 57.7 | 27.9 | inactive |
| Cdk11b (cyclin dependent kinase 11B) | 3 | 91.9 | 68.1 | inactive |
| Tmem183a (transmembrane protein 183A) | 1 | 73.4 | 92.1 | inactive |
| Tmem183a (transmembrane protein 183A) | 2 | 78.5 | 85.9 | inactive |
| Tmem183a (transmembrane protein 183A) | 3 | 36.1 | 49.9 | inactive |
| Dctpp1 (dCTP pyrophosphatase 1) | 1 | 112 | 59 | inactive |
| Dctpp1 (dCTP pyrophosphatase 1) | 2 | 74.7 | 73.6 | inactive |
| Dctpp1 (dCTP pyrophosphatase 1) | 3 | 83.8 | 89.5 | inactive |
| Slc25a37 | 1 | 101 | 84.4 | inactive |
| Slc25a37 | 2 | 60 | 71.3 | inactive |
| Slc25a37 | 3 | 43 | 54.5 | inactive |
| Duoxa2 (dual oxidase maturation factor 2) | 1 | 34.7 | 15.5 | inactive |
| Duoxa2 (dual oxidase maturation factor 2) | 2 | 73.3 | 70.7 | inactive |
| Duoxa2 (dual oxidase maturation factor 2) | 3 | 103 | 119 | inactive |
| Ndufa2 (NADH:ubiquinone oxidoreductase subunit A2) | 1 | 133 | 135 | active |
| Ndufa2 (NADH:ubiquinone oxidoreductase subunit A2) | 2 | 143 | 99 | active |
| Arhgap20 (Rho GTPase activating protein 20) | 1 | 113 | 121 | inactive |
| Arhgap20 (Rho GTPase activating protein 20) | 2 | 77.5 | 88.2 | inactive |
| Arhgap20 (Rho GTPase activating protein 20) | 3 | 69.1 | 64.6 | inactive |
| Myl2 (myosin, light polypeptide 2, regulatory, cardiac, slow) | 1 | 63.8 | 33.4 | inactive |
| Myl2 (myosin, light polypeptide 2, regulatory, cardiac, slow) | 2 | 85.6 | 82.8 | inactive |
| Ilk (integrin linked kinase) | 1 | 85.1 | 91.4 | inactive |
| Ilk (integrin linked kinase) | 2 | 82.4 | 79.9 | inactive |
| Ilk (integrin linked kinase) | 3 | 86.9 | 95.7 | inactive |
| Pth2r (parathyroid hormone 2 receptor) | 1 | 46.5 | 60.5 | inactive |
| Pth2r (parathyroid hormone 2 receptor) | 2 | 79.4 | 59.6 | inactive |
| Pth2r (parathyroid hormone 2 receptor) | 3 | 60.2 | 71.7 | inactive |
| Nmur1 (neuromedin U receptor 1) | 1 | 60.3 | 65.9 | inactive |
| Nmur1 (neuromedin U receptor 1) | 2 | 64.1 | 67.9 | inactive |
| Nmur1 (neuromedin U receptor 1) | 3 | 82.2 | 76.5 | inactive |
| Itgb4 (integrin beta 4) | 1 | 86.6 | 70.5 | inactive |
| Itgb4 (integrin beta 4) | 2 | 62.8 | 61.9 | inactive |
| Arhgap10 (Rho GTPase activating protein 10) | 1 | 154 | 97 | active |
| Arhgap10 (Rho GTPase activating protein 10) | 2 | 83.9 | 71.7 | inactive |
| Arhgap10 (Rho GTPase activating protein 10) | 3 | 48.5 | 68.5 | inactive |
| Arhgap10 (Rho GTPase activating protein 10) | 4 | 85.8 | 97.3 | inactive |
| Arhgap10 (Rho GTPase activating protein 10) | 5 | 73.2 | 101 | inactive |
| Arhgap10 (Rho GTPase activating protein 10) | 6 | 73.2 | 87.4 | inactive |
| Scarf1 (scavenger receptor class F, member 1) | 1 | 74.3 | 84 | inactive |
| Scarf1 (scavenger receptor class F, member 1) | 2 | 60.3 | 64.4 | inactive |
| Scarf1 (scavenger receptor class F, member 1) | 3 | 75.3 | 38.4 | inactive |
| Ube2o (ubiquitin-conjugating enzyme E2O) | 1 | 82.9 | 89.9 | inactive |
| Ube2o (ubiquitin-conjugating enzyme E2O) | 2 | 105 | 131 | inactive |
| Ube2o (ubiquitin-conjugating enzyme E2O) | 3 | 62.6 | 143 | inactive |
| Il2rg (interleukin 2 receptor, gamma chain) | 1 | 53.8 | 68.1 | inactive |
| Il2rg (interleukin 2 receptor, gamma chain) | 2 | 75.1 | 73 | inactive |
| Il2rg (interleukin 2 receptor, gamma chain) | 3 | 91 | 77.8 | inactive |
| Nyap1 | 1 | 82.2 | 91.9 | inactive |
| Nyap1 | 2 | 69.5 | 94.3 | inactive |
| Nyap1 | 3 | 106 | 134 | inactive |
| Cycs (cytochrome c, somatic) | 1 | 104 | 90.1 | inactive |
| Cycs (cytochrome c, somatic) | 2 | 93.4 | 80 | inactive |
| Cycs (cytochrome c, somatic) | 3 | 66.5 | 74.7 | inactive |
| Hexb (hexosaminidase B) | 1 | 96.4 | 91.3 | inactive |
| Hexb (hexosaminidase B) | 2 | 39.7 | 65.6 | inactive |
| Hexb (hexosaminidase B) | 3 | 94 | 90.2 | inactive |
| Cd320 (CD320 antigen) | 1 | 19.3 | 44.8 | inactive |
| Cd320 (CD320 antigen) | 2 | 32.1 | 70.3 | inactive |
| Cd320 (CD320 antigen) | 3 | 49.9 | 69 | inactive |
| Crtc2 (CREB regulated transcription coactivator 2) | 1 | 132 | 71.1 | active |
| Crtc2 (CREB regulated transcription coactivator 2) | 2 | 46.7 | 78.2 | inactive |
| Crtc2 (CREB regulated transcription coactivator 2) | 3 | 36.3 | 75.8 | inactive |
| Ca8 (carbonic anhydrase 8) | 1 | 71.6 | 57.5 | inactive |
| Ca8 (carbonic anhydrase 8) | 2 | 105 | 94 | inactive |
| Prl3d1 (prolactin family 3, subfamily d, member 1) | 1 | 60.3 | 67.2 | inactive |
| Prl3d1 (prolactin family 3, subfamily d, member 1) | 2 | 84.5 | 83.4 | inactive |
| Prl3d1 (prolactin family 3, subfamily d, member 1) | 3 | 94.2 | 73.5 | inactive |
| Mrpl17 (mitochondrial ribosomal protein L17) | 1 | 71.1 | 53.1 | inactive |
| Mrpl17 (mitochondrial ribosomal protein L17) | 2 | 73.6 | 58.8 | inactive |
| Mrpl17 (mitochondrial ribosomal protein L17) | 3 | 83.7 | 80.5 | inactive |
| Sntb2 (syntrophin, basic 2) | 1 | 77.8 | 74.7 | inactive |
| Sntb2 (syntrophin, basic 2) | 2 | 43.3 | 49.9 | inactive |
| Nxf1 (nuclear RNA export factor 1) | 1 | 25.5 | 56.1 | inactive |
| Nxf1 (nuclear RNA export factor 1) | 2 | 109 | 96.2 | inactive |
| Dpp4 (dipeptidylpeptidase 4) | 1 | 188 | 75.8 | active |
| Dpp4 (dipeptidylpeptidase 4) | 2 | 48.3 | 43.6 | inactive |
| Dpp4 (dipeptidylpeptidase 4) | 3 | 70.8 | 74.1 | inactive |
| Riok3 (RIO kinase 3) | 1 | 58.4 | 69.7 | inactive |
| Or8k25 (olfactory receptor family 8 subfamily K member 25) | 1 | 70.2 | 69.3 | inactive |
| Or8k25 (olfactory receptor family 8 subfamily K member 25) | 2 | 67.9 | 45.2 | inactive |
| Or8k25 (olfactory receptor family 8 subfamily K member 25) | 3 | 61.9 | 101 | inactive |
| Ybx3 (Y box protein 3) | 1 | 43.1 | 36.4 | inactive |
| Ybx3 (Y box protein 3) | 2 | 75.2 | 68.5 | inactive |
| Ppp1r16b (protein phosphatase 1, regulatory subunit 16B) | 1 | 98.8 | 87.2 | inactive |
| Ppp1r16b (protein phosphatase 1, regulatory subunit 16B) | 2 | 60.4 | 36.3 | inactive |
| Ppp1r16b (protein phosphatase 1, regulatory subunit 16B) | 3 | 104 | 79 | inactive |
| Angpt4 (angiopoietin 4) | 1 | 52.2 | 39.1 | inactive |
| Angpt4 (angiopoietin 4) | 2 | 82.7 | 83.2 | inactive |
| Tns1 (tensin 1) | 1 | 159 | 130 | active |
| Tns1 (tensin 1) | 2 | 59.1 | 88.2 | inactive |
| Tns1 (tensin 1) | 3 | 97.2 | 86.1 | inactive |
| Fbxl14 (F-box and leucine-rich repeat protein 14) | 1 | 102 | 87.6 | inactive |
| Fbxl14 (F-box and leucine-rich repeat protein 14) | 2 | 112 | 81.1 | inactive |
| Fbxl14 (F-box and leucine-rich repeat protein 14) | 3 | 80.7 | 79 | inactive |
| Paxx (non-homologous end joining factor) | 1 | 30.7 | 32.8 | inactive |
| Paxx (non-homologous end joining factor) | 2 | 80.5 | 78.6 | inactive |
| Paxx (non-homologous end joining factor) | 3 | 92.5 | 110 | inactive |
| Hoxb8 (homeobox B8) | 1 | 72.5 | 104 | inactive |
| Hoxb8 (homeobox B8) | 2 | 86.1 | 69 | inactive |
| Hoxb8 (homeobox B8) | 3 | 49.1 | 37.3 | inactive |

Hits (from the list above):
| gene symbol | reagent | GFP, % of control | viability (ATP), % of control | call |
| --- | --- | --- | --- | --- |
| Cdk11b (cyclin dependent kinase 11B) | 1 | 155 | 78 | active |
| Ndufa2 (NADH:ubiquinone oxidoreductase subunit A2) | 1 | 133 | 135 | active |
| Ndufa2 (NADH:ubiquinone oxidoreductase subunit A2) | 2 | 143 | 99 | active |
| Arhgap10 (Rho GTPase activating protein 10) | 1 | 154 | 97 | active |
| Crtc2 (CREB regulated transcription coactivator 2) | 1 | 132 | 71.1 | active |
| Dpp4 (dipeptidylpeptidase 4) | 1 | 188 | 75.8 | active |
| Tns1 (tensin 1) | 1 | 159 | 130 | active |
